Measured values from PubChem BioAssay AID2685 (National Center for Advancing Translational Sciences (NCATS), 2010).
The other results are listed elsewhere or left out. These are further read-outs of the screen, such as a control signal, another cell line or another target. No call is given for them. The list favours compounds with an active or inconclusive main result. The note in brackets gives the kind of curve behind each potency; many fits are weak.

Test: qHTS Assay for Lipid Storage Modulators in Drosophila S3 Cells;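 on cell number change: cells counted by Cell Tracker Red CMTPX staining in the red channel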
Settings: BODIPY lipid droplet fluorescence, 18-24 h; for cell number change: measured here: cell count max response, cells fed with added oleic acid
Summary of the method: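 Laser-scanning cytometry quantifies lipid droplet accumulation (500–530 nm total intensity; droplet/cell object ratio) in oleic acid-fed (400 uM added) Drosophila S3 cells treated with a concentration series. 20 uM Triacsin C defined 100% inhibition.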

[1] = measured here: lipid fluorescence (Fed channel) AC50, cells fed with added oleic acid
[2] = measured here: cell number channel AC50, cells fed with added oleic acid

Compound | cell number change [%] | AC50 [1] | AC50 [2]
CCCn1c(SCC(=O)Nc2cc(S(=O)(=O)N3CCCCC3)ccc2C)n[nH]c1=O | -5.01 | 4.61 µM [rising, partial curve, poor fit] | –
O=C(Nc1ccc(F)cc1F)NC1CCCc2ccccc21 (stereo unspecified) | 8.38 | – | 0.461 µM [rising, single point]
c1csc(-c2csc(-c3cccs3)n2)c1 | -3.35 | 29.1 µM [rising, single point] | –
CC(C)COc1cccc(C(=O)Nc2ccc(S(=O)(=O)N3CCOCC3)cc2)c1 | -23.7 | 23.1 µM [falling, single point] | –
O=C(O)c1cc(S(=O)(=O)NCCN2CCNC2=O)ccc1O | 30 | – | 0.58 µM [rising, full curve, poor fit]
O=C(NCc1cccnc1)c1ccc(CS(=O)(=O)Cc2ccc(Cl)cc2)o1 | 99 | 2.31 µM [rising, partial curve, poor fit] | 18.4 µM [rising, partial curve]
O=C(NC(=S)Nc1ccc(NC(=O)c2cccs2)cc1)c1cc2ccccc2o1 | -32.3 | 0.461 µM [rising, full curve, poor fit] | 29.1 µM [falling, single point]
O=c1[nH]c(=O)n(CCc2ccc(F)cc2)c(O)c1C=NCc1ccc2c(c1)OCO2 | 55.6 | 4.11 µM [rising, partial curve] | 2.91 µM [rising, full curve]
Cc1nn(Cc2n[nH]c(=S)n2Cc2ccccc2)c(C)c1Cl | -10.2 | – | –
O=C(C1CC(=O)N(c2ccc(Br)cc2)C1)N1CCCC1 (stereo unspecified) | 21.6 | – | –
COc1ccc(C(=O)NN(C)c2nc(C(F)(F)F)nc3ccccc23)cc1 | 20.3 | – | 4.61 µM [rising, full curve, poor fit]
COc1ccccc1NC(=O)C1=C(C)Nc2nc(-c3cccs3)nn2C1c1cccc(O)c1 (stereo unspecified) | 30.1 | – | 1.84 µM [rising, single point]
O=C(O)c1ccc(NC(=S)NC(=O)c2ccc(-c3ccc(Br)cc3)o2)cc1 | -5.17 | 0.82 µM [falling, single point] | –
CN(C(=O)CCn1c(=S)oc2ccccc21)C1CCCCC1 | 26 | 14.6 µM [rising, partial curve] | –
Cn1c(=O)c2cc(S(=O)(=O)NCCC(=O)NC3CCCCCC3)ccc2n(C)c1=O | 24.8 | 0.0206 µM [falling, full curve, poor fit] | –
O=C1CC(NC23CC4CC(CC(C4)C2)C3)C(=O)N1c1ccc2c(c1)OCO2 (stereo unspecified) | 32.3 | – | 5.17 µM [rising, single point]
COc1cccc(NC(=O)CN2CCN(C(=O)c3ccco3)CC2)c1 | 1.52 | – | –
CC(=O)Nc1ccc(-c2cc(NC(C)=O)n(-c3ccccc3)n2)cc1 | -0.428 | 1.84 µM [rising, partial curve] | –
NC(=O)CSc1nnc(NC(=O)c2ccc3ccccc3c2)s1 | -96.5 | – | 25.9 µM [falling, partial curve]
COc1ccccc1/C=C/C(=O)c1c2c(c(C)[nH]c1=O)CCCC2 | -75.4 | 29.1 µM [falling, single point] | 14.6 µM [falling, partial curve]

Copied from the entries so far for reference:
Compound | cell number change [%] | AC50 [1] | AC50 [2]
COc1ccccc1NC(=O)C1=C(C)Nc2nc(-c3cccs3)nn2C1c1cccc(O)c1 (stereo unspecified) | 30.1 | – | 1.84 µM [rising, single point]
O=C(O)c1ccc(NC(=S)NC(=O)c2ccc(-c3ccc(Br)cc3)o2)cc1 | -5.17 | 0.82 µM [falling, single point] | –
CN(C(=O)CCn1c(=S)oc2ccccc21)C1CCCCC1 | 26 | 14.6 µM [rising, partial curve] | –
Cn1c(=O)c2cc(S(=O)(=O)NCCC(=O)NC3CCCCCC3)ccc2n(C)c1=O | 24.8 | 0.0206 µM [falling, full curve, poor fit] | –
O=C1CC(NC23CC4CC(CC(C4)C2)C3)C(=O)N1c1ccc2c(c1)OCO2 (stereo unspecified) | 32.3 | – | 5.17 µM [rising, single point]
COc1cccc(NC(=O)CN2CCN(C(=O)c3ccco3)CC2)c1 | 1.52 | – | –
CC(=O)Nc1ccc(-c2cc(NC(C)=O)n(-c3ccccc3)n2)cc1 | -0.428 | 1.84 µM [rising, partial curve] | –
NC(=O)CSc1nnc(NC(=O)c2ccc3ccccc3c2)s1 | -96.5 | – | 25.9 µM [falling, partial curve]

Remaining list, next part

Compound | cell number change [%] | AC50 [1] | AC50 [2]
CC(CCc1ccccc1)NC(=O)COC(=O)c1cccs1 (stereo unspecified) | -47.1 | – | –
CC1CN(C(=O)COC(=O)c2nn(-c3ccccc3)c(=O)c3ccccc23)CC(C)O1 (stereo unspecified) | 41 | 1.3 µM [falling, full curve] | –
COc1ccc(C(=O)NNC(=O)c2ccc(C)cc2)cc1S(=O)(=O)N1CCCC1 | 22.7 | 0.164 µM [rising, full curve] | –
N#Cc1c(SCc2ccccc2)sc(C(=O)c2ccccc2)c1N | 72.6 | – | 3.66 µM [rising, partial curve]
O=C(c1ccc(Cn2cc(Cl)cn2)o1)N1CCN(Cc2ccc3c(c2)OCO3)CC1 | -46.2 | – | 32.6 µM [falling, partial curve, poor fit]
NS(=O)(=O)c1ccc(NC(=O)C2(c3ccccc3)CCCC2)cc1 | 5.37 | 6.51 µM [falling, partial curve, poor fit] | –
Cc1ccc(S(=O)(=O)N2CCN(C(=O)c3cc(S(=O)(=O)N(C)C)ccc3N3CCCC3)CC2)cc1 | -22.8 | 29.1 µM [falling, single point] | –
O=c1sc(Nc2ccccc2)nc2ccsc12 | 2.32 | – | –
C=CCc1cccc(OC)c1OCCOCCNCCO | -147 | 20.6 µM [falling, partial curve] | 23.1 µM [falling, partial curve]
CN(C)c1ncnc2c1ncn2C1OC(CO)C(O)C1O (stereo unspecified) | -21.9 | 16.4 µM [falling, single point] | –
O=C1c2ccc(Cl)cc2S(=O)(=O)c2cccc(C(=O)N3CCN(c4ncc(Br)cn4)CC3)c21 | -18.1 | 1.84 µM [falling, single point] | –
O=C(COc1ccccc1Cl)Nn1cnnc1 | 6.64 | – | –
COc1ccc(Cn2c(=O)oc3ccc(C)cc32)cc1 | 1.75 | 6.51 µM [falling, single point] | –
O=C(N/N=C/c1cccnc1)c1ccc(NC(=O)c2cccc(Cl)c2)cc1 | 7.08 | – | –
CCc1cccc(C)c1NC(=O)COC(=O)c1ccc2c(c1)S(=O)(=O)c1ccccc1C2=O | – | 0.116 µM [falling, full curve, poor fit] | 0.731 µM [falling, single point]
CCN1C(=O)C(CC(=O)Nc2ccc(F)cc2)N(Cc2ccc3c(c2)OCO3)C1=S (stereo unspecified) | -1.29 | 7.31 µM [rising, single point] | –
COc1ccccc1CNC(=O)c1ccccc1OC | – | – | 6.51 µM [rising, single point]
COC(=O)c1c(NC(=O)COC(=O)c2ccc(C)s2)sc2c1CCCCC2 | -4.87 | 0.13 µM [falling, full curve, poor fit] | –
C=CCn1c(O)c(N=NC(=O)OCC)c2ccccc21 | -1.77 | 0.366 µM [rising, full curve] | 1.46 µM [rising, full curve]
